The nature of data set [1]: Solubility of compound in FeSSIF at pH 7.4. Conditions: simulated gi fluid.
Data set [2] in a line: Kinetic solubility of the compound at pH 7.4. The settings on record: buffer.
Data set [3] in a line: Solubility of compound in FaSSIF at pH 7.4. Conditions: simulated gi fluid.

Values after ≈ are worked out from the molar mass of the structure shown.

For `CCN1CCc2cc(O)c(N3CC(=O)NS3(=O)=O)c(F)c2CC1`, the figures for the solubility in data set [1] and in data set [3] were 223 µM (≈ 76.6 µg/mL) and 226 µM (≈ 77.6 µg/mL), respectively. Besides, the kinetic solubility in data set [2] amounted to 225 µM (≈ 77.3 µg/mL).

The values are drawn from ChEMBL document CHEMBL5523702, “Synthesis and structure-activity optimization of azepane-containing derivatives as PTPN2/PTPN1 inhibitors” (Eur J Med Chem, 2024).
